Binding data for one molecule are collected here from patent US20100197768A1.

These are yes or no findings as the source states them, for the method shown. Binding seen in cells or lysates may run through a third protein. Some binding calls cover weakened binding; strength is not graded here. Tags and fused reporters may be left off the sequences shown.

The target of assay [1] is HA-hA3G (human), Q9HC16. Description: co-IP with V5 antibody, HA western, RNase A treated 293T extracts. To be noted: remark: other sources report otherwise.
Assay [2] has as its target HA-hA3G (human), Q9HC16. Description: co-IP with V5 antibody, HA western (FIG. 9b). To be noted: remark: other sources report otherwise.

B1: EGFP-V5-hA3G, Q9HC16 1-384 (enzyme, human, UniProt Q9HC16 1-384, looked up, not shown: large carriers)
chain: MKPHFRNTVERMYRDTFSYNFYNRPILSRRNTVWLCYEVKTKGPSRPPLDAKIFRGQVYSELKYHPEMRFFHWFSKWRKLHRDQEYEVTWYISWSPCTKCTRDMATFLAEDPKVTLTIFVARLYYFWDPDYQEALRSLCQKRDGPRATMKIMNYDEFQHCWSKFVYSQRELFEPWNNLPKYYILLHIMLGEILRHSMDPPTFTFNFNNEPWVRGRHETYLCYEVERMHNDTWVLLNQRRGFLCNQAPHKHGFLEGRHAELCFLDVIPFWKLDLDQDYRVTCFTSWSPCFSCAQEMAKFISKNKHVSLCIFTARIYDDQGRCQEGLRTLAEAGAKISIMTYSEFKHCWDTFVDHQGCPFQPWDGLDEHSQDLSGRLRAILQNQEN
Take B1: the binding entry with HA-hA3G (human), Q9HC16 [1] was “binds”; in the assay with HA-hA3G (human), Q9HC16 [2] it was “binds”.
